In the supplement of paper PMC11732987, “Enantioselective OTUD7B fragment discovery through chemoproteomics screening and high-throughput optimisation” (Communications Chemistry, 2025):
The list shows a part of the results. The data scatter; read single values as rough.

Amino acid sequences for entries named in this document (tags omitted). A change or cut given only in a name is not applied to a line headed by its entry. Residues count along the entry.
UniProt Q96KM6: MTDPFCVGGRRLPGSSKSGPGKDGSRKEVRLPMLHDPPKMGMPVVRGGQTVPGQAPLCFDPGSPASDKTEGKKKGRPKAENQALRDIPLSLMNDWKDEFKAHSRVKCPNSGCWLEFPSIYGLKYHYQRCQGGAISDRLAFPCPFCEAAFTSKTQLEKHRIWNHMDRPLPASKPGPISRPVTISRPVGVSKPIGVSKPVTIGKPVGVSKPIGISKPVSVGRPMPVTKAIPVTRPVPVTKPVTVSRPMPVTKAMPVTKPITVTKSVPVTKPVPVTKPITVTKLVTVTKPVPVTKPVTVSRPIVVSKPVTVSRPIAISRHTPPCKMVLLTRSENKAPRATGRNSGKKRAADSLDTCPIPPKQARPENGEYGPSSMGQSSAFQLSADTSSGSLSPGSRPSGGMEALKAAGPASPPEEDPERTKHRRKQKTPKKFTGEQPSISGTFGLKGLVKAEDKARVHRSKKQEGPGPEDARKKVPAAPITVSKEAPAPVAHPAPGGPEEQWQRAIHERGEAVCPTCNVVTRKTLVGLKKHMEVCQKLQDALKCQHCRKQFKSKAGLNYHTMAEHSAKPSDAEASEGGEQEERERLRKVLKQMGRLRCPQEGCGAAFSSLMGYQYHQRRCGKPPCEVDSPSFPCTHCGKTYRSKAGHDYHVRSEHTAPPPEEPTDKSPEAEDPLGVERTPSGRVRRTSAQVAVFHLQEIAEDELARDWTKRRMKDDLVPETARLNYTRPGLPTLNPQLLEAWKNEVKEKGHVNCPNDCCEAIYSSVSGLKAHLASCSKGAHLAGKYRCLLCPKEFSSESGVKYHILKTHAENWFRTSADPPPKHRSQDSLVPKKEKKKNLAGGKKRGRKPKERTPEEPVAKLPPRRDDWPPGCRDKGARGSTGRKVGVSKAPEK
UniProt P59923: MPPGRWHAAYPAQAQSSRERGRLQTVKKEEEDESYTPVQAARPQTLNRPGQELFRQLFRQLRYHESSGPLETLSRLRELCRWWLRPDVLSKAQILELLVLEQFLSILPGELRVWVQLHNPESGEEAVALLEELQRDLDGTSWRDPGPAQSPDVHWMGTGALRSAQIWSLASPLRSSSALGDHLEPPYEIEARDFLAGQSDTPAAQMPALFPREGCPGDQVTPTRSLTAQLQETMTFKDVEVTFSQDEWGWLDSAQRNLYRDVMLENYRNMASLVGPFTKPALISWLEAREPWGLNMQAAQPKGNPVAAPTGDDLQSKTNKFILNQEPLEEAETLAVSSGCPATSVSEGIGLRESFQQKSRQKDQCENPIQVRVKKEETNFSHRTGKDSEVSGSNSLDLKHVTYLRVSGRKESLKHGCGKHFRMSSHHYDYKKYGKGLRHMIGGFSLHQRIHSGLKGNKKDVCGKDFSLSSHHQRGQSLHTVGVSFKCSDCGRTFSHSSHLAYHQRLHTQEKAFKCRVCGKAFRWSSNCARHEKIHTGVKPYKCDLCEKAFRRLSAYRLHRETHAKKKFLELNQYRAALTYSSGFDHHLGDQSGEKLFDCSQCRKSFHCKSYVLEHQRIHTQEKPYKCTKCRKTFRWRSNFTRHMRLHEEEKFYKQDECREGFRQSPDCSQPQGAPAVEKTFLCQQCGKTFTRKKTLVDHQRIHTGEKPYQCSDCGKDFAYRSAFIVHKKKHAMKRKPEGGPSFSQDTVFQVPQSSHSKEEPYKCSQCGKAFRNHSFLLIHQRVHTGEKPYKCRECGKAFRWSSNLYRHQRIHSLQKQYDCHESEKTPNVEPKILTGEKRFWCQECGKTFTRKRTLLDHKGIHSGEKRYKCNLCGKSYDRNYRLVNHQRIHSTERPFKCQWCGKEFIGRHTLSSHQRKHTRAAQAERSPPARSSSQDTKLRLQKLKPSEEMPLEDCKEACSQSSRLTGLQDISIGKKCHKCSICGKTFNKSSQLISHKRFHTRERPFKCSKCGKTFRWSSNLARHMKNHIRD
UniProt O43257, whole entry, looked up: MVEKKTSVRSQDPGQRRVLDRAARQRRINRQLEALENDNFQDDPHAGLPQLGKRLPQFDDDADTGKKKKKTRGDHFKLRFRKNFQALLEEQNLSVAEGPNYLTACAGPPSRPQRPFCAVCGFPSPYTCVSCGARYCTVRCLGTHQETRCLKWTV
UniProt Q96H79: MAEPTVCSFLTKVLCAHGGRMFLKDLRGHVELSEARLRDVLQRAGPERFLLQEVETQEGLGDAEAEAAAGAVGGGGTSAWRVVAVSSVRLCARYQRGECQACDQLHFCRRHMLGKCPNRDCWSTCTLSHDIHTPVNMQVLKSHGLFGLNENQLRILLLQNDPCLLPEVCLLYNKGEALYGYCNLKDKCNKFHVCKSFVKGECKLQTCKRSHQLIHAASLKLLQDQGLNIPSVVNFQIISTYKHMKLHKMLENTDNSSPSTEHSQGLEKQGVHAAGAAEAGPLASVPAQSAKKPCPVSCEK
UniProt Q7Z2W4: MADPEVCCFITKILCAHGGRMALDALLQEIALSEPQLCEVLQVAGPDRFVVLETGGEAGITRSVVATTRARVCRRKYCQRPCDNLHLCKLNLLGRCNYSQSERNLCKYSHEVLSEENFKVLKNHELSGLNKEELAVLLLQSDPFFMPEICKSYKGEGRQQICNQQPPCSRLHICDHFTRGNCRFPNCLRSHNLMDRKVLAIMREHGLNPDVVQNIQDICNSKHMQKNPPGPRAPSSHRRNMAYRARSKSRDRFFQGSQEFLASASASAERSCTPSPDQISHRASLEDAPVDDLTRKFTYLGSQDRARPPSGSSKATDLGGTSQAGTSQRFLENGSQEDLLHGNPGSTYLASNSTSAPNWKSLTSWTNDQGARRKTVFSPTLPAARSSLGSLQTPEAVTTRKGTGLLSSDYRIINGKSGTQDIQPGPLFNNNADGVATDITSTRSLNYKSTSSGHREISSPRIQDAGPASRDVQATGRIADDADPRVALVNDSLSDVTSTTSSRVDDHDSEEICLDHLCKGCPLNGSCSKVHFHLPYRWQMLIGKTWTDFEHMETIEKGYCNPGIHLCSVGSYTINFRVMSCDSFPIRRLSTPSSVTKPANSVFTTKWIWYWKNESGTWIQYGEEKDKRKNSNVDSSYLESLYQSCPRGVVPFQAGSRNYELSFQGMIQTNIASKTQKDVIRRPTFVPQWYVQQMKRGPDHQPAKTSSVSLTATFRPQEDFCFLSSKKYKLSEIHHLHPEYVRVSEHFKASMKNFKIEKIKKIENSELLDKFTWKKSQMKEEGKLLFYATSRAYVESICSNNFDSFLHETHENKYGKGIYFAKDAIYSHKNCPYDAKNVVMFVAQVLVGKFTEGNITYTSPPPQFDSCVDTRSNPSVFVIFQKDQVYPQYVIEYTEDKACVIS
UniProt A7E2V4, 1084-1110: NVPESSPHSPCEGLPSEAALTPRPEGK
UniProt Q9UGR2: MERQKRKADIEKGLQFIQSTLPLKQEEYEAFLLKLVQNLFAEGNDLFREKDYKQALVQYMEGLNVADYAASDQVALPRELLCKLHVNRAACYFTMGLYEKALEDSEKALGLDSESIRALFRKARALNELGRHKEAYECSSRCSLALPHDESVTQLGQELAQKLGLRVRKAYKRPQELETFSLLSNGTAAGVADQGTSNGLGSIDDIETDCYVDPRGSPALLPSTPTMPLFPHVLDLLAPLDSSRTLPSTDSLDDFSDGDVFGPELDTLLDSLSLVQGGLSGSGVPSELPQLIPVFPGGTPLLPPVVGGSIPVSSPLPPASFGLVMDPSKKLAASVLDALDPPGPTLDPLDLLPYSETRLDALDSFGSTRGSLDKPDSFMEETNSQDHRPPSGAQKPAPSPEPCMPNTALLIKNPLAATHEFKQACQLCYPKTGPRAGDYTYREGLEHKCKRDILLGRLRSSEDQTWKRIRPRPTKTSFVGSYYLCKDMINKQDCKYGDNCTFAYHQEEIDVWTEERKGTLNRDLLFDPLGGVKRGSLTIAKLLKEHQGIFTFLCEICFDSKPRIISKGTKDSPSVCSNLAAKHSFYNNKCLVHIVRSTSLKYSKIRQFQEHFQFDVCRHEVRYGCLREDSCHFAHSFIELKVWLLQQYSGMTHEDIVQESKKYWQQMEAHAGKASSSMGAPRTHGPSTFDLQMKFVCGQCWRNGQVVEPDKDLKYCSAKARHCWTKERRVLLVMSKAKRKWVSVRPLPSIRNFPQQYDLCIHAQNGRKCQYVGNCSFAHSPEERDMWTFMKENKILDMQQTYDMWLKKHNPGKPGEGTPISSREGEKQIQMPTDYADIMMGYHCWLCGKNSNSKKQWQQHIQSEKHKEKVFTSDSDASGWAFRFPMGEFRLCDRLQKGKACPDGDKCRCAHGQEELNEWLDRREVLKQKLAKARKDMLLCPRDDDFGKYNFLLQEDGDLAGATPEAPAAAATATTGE
UniProt Q6FIF0: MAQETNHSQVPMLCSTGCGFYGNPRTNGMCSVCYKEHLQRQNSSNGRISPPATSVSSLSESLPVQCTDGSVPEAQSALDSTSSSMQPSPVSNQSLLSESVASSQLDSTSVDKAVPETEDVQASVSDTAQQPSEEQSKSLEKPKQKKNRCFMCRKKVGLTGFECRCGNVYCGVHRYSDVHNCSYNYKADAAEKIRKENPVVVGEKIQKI
UniProt Q7Z3T8: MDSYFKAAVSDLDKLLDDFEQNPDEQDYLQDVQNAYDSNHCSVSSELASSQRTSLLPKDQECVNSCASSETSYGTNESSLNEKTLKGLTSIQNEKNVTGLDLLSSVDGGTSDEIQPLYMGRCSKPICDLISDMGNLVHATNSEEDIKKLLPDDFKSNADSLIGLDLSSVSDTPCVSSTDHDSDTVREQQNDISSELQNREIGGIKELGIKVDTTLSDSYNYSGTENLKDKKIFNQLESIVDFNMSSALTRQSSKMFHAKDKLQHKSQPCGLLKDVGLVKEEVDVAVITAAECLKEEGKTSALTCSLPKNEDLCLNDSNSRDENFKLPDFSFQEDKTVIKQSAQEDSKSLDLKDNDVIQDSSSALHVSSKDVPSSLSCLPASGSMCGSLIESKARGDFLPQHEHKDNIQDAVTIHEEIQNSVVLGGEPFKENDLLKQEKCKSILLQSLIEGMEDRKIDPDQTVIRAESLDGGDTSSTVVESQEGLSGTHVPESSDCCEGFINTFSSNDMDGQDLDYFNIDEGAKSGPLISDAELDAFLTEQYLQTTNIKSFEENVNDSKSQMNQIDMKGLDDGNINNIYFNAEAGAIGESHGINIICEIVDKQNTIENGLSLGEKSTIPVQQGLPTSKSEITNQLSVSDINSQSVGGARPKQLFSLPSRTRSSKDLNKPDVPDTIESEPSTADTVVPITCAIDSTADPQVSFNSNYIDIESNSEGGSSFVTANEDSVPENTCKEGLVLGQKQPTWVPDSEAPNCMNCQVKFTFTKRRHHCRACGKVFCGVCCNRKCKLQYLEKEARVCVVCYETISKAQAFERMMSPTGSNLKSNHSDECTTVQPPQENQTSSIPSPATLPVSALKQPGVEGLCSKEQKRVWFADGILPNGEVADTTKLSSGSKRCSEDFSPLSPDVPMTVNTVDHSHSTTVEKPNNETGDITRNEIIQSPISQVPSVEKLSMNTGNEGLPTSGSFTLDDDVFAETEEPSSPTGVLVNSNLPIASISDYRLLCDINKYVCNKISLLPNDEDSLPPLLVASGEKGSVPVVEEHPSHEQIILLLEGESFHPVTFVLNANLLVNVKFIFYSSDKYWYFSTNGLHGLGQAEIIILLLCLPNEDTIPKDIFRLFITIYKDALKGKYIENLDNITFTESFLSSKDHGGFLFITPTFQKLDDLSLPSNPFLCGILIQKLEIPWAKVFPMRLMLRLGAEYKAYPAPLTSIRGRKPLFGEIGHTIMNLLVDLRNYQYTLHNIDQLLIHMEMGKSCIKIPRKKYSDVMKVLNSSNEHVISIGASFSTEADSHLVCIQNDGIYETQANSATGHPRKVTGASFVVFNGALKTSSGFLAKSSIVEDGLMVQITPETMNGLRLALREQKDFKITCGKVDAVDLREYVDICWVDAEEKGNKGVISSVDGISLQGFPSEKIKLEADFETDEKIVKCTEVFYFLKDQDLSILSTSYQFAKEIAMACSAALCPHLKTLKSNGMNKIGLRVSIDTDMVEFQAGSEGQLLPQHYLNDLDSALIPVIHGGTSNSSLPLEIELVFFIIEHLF
UniProt Q96JP5: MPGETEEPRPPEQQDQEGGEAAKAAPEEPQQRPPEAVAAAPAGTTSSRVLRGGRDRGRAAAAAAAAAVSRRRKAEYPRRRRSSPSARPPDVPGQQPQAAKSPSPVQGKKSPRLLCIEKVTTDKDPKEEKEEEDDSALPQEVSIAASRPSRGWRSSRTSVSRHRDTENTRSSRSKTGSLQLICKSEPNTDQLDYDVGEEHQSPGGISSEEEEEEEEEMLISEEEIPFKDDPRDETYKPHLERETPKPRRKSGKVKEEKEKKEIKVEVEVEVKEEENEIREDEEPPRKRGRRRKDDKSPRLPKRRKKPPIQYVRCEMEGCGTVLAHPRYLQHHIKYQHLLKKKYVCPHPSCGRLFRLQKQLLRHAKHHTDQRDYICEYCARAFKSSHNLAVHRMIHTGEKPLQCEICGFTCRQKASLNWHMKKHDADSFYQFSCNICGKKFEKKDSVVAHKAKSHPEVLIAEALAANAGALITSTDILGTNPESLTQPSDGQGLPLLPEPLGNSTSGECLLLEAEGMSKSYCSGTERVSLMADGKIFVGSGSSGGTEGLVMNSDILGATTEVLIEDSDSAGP

Compound: ClCC(=O)N[C@H]1CCCc2ccccc12
Assay: log2 mean competition ratio of IA-DTB cysteine labelling (DMSO/compound) (log2 ratio); higher = stronger cysteine engagement by compound
Details: 50 µM; treatment time: 4 h; cell line lysate: HEK293T
Experimental: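 IA-DTB competitive cysteine chemoproteomics in HEK293T RIPA lysate. Lysates were treated with compound 29 or 30 at 50 or 200 µM for 4 h, then IA-DTB (500 µM, 1 h), trypsin-digested, NeutrAvidin-enriched and analysed by diaPASEF. Competition ratio = intensity DMSO / intensity compound (n=4 treated, n=64 DMSO); binding: mean log2 CR ≥ 1 and p ≤ 0.05 plus QC filters. Target is the cysteine site.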

Target	log2 mean competition ratio
ZNF512B C871 (UniProt Q96KM6)	0.0616
ZNF318 C242 (UniProt Q5VUA4)	-0.285
ZNF445 C215 (UniProt P59923)	0.103
ZNF620 C87	0.0337
ZNF398 C275	-0.0164
ZNF516 C114 (UniProt Q92618)	-0.279
ZNHIT1 C140 (UniProt O43257)	-0.0974
ZFC3H1 C1587 (UniProt O60293)	-0.419
ZC3HAV1L C7 (UniProt Q96H79)	0.0134
ZC3HAV1 C272 (UniProt Q7Z2W4)	-0.112
ZNF446 C164	-0.236
ZSWIM8 C1094 (UniProt A7E2V4)	-0.562
ZNF709 C375	-0.247
ZDBF2 C1575	-0.0959
ZMYM1 C10 (UniProt Q5SVZ6)	-0.23
ZCCHC8 C157 (UniProt Q6NZY4)	0.0307
ZC3H7B C940 (UniProt Q9UGR2)	0.604
ZZZ3 C643 (UniProt Q8IYH5)	-0.0431
ZFAND6 C163 (UniProt Q6FIF0)	0.0296
ZFYVE16 C863 (UniProt Q7Z3T8)	0.164
ZFP91 C520 (UniProt Q96JP5)	-0.139
ZNF496 C324	-0.131
ZNF276 C136	-0.129
ZEB1 C503 (UniProt P37275)	-0.0382
ZNF446 C33	-0.247
ZNF623 C97	-0.457
ZC3H7A C894 (UniProt Q8IWR0)	-0.185
ZMYND8 C138 (UniProt Q9ULU4)	-0.299
ZNF407 C1230 (UniProt Q9C0G0)	-0.185
ZFHX4 C964 (UniProt Q86UP3)	-0.256

As entered above.
Value of ZFYVE16 C863 (UniProt Q7Z3T8) under log2 mean competition ratio: 0.164
Value of ZFAND6 C163 (UniProt Q6FIF0) under log2 mean competition ratio: 0.0296
